From article PMC3700992
No constants are given. Whether binding was seen depends on the method and setting. Binding calls can cover weak binding; strength is not graded here.

Target: Myeloperoxidase (human)
Test: crystal structure; Cp and Mpo pre-mixed (1:1) before crystallization; MPD Suite screen; space group P6(5)22; 4.7 Å resolution; molecular replacement, rigid body refinement; both purified

binding: binds
B1: Human ceruloplasmin (protein, UniProt P00450 20-1065)
chain: KEKHYYIGIIETTWDYASDHGEKKLISVDTEHSNIYLQNGPDRIGRLYKKALYLQYTDETFRTTIEKPVWLGFLGPIIKAETGDKVYVHLKNLASRPYTFHSHGITYYKEHEGAIYPDNTTDFQRADDKVYPGEQYTYMLLATEEQSPGEGDGNCVTRIYHSHIDAPKDIASGLIGPLIICKKDSLDKEKEKHIDREFVVMFSVVDENFSWYLEDNIKTYCSEPEKVDKDNEDFQESNRMYSVNGYTFGSLPGLSMCAEDRVKWYLFGMGNEVDVHAAFFHGQALTNKNYRIDTINLFPATLFDAYMVAQNPGEWMLSCQNLNHLKAGLQAFFQVQECNKSSSKDNIRGKHVRHYYIAAEEIIWNYAPSGIDIFTKENLTAPGSDSAVFFEQGTTRIGGSYKKLVYREYTDASFTNRKERGPEEEHLGILGPVIWAEVGDTIRVTFHNKGAYPLSIEPIGVRFNKNNEGTYYSPNYNPQSRSVPPSASHVAPTETFTYEWTVPKEVGPTNADPVCLAKMYYSAVEPTKDIFTGLIGPMKICKKGSLHANGRQKDVDKEFYLFPTVFDENESLLLEDNIRMFTTAPDQVDKEDEDFQESNKMHSMNGFMYGNQPGLTMCKGDSVVWYLFSAGNEADVHGIYFSGNTYLWRGERRDTANLFPQTSLTLHMWPDTEGTFNVECLTTDHYTGGMKQKYTVNQCRRQSEDSTFYLGERTYYIAAVEVEWDYSPQREWEKELHHLQEQNVSNAFLDKGEFYIGSKYKKVVYRQYTDSTFRVPVERKAEEEHLGILGPQLHADVGDKVKIIFKNMATRPYSIHAHGVQTESSTVTPTLPGETLTYVWKIPERSGAGTEDSACIPWAYYSTVDQVKDLYSGLIGPLIVCRRPYLKVFNPRRKLEFALLFLVFDENESWYLDDNIKTYSDHPEKVNKDDEEFIESNKMHAINGRMFGNLQGLTMHVGDEVNWYLMGMGNEIDLHTVHFHGHSFQYKHRGVYSSDVFDIFPGTYQTLEMFPRTPGIWLLHCHVTDHIHAGMETTYTVLQNEDTKSG
